This is an account of results in paper PMC12185749.

For one assay, the target named is T1, CLPTM1L-HA (UniProt Q96KA5).
T1 sequence: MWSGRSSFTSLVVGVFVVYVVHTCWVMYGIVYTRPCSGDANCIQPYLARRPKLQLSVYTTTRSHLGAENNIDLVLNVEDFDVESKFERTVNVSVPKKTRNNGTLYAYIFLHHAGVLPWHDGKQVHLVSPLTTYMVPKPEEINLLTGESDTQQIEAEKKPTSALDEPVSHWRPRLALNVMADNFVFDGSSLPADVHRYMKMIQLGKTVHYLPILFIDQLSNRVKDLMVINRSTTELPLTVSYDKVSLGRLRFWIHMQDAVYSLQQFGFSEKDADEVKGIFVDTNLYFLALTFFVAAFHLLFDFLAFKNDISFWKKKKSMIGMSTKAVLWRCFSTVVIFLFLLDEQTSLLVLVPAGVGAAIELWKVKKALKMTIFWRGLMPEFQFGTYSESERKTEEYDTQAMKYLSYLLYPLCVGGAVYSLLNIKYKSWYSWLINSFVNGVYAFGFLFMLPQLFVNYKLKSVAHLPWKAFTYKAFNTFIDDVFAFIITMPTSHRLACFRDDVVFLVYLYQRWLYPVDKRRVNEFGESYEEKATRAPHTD
Briefly: co-IP; NPC cells with CLPTM1L-HA and ERLIN2-Flag; forward and reverse immunoprecipitation; lysate incubated overnight with antibody, Protein A/G magnetic beads 4 h at 4 °C, washed three times with lysis buffer, western blot.

The next assay has as its target T2, wild-type CLPTM1L-HA (UniProt Q96KA5).
T2 sequence: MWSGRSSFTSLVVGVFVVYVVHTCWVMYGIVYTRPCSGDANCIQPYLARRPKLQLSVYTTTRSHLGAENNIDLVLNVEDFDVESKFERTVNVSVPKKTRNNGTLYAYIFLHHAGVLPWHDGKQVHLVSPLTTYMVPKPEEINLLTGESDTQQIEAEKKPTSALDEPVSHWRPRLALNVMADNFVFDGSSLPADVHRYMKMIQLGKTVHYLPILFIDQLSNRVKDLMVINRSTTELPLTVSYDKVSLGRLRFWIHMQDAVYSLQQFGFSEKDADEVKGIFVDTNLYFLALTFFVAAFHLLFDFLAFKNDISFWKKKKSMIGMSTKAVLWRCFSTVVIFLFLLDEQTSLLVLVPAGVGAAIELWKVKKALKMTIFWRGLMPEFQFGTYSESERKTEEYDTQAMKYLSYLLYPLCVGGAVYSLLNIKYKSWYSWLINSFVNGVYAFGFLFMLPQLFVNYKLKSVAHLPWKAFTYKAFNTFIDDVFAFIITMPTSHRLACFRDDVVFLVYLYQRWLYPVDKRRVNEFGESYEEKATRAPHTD
Briefly: co-IP; 293T cells co-transfected with ERLIN2-FLAG and CLPTM1L-HA (wild type or deletion mutants); immunoprecipitation with anti-HA antibodies, immunoblot.

Another assay concerns the target T3, ERLIN2-Flag (UniProt O94905).
T3 sequence: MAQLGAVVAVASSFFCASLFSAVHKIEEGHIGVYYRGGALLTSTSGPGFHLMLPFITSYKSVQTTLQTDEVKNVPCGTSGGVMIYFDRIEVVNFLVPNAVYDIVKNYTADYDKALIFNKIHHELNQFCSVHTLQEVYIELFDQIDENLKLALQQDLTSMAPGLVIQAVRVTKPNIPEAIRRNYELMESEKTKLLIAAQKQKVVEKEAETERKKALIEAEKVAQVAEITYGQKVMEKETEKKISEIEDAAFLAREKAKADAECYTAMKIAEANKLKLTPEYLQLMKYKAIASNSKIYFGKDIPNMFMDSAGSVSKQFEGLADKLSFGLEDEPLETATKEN
Briefly: co-IP; NPC cells with CLPTM1L-HA and ERLIN2-Flag; forward and reverse immunoprecipitation; lysate incubated overnight with antibody, Protein A/G magnetic beads 4 h at 4 °C, washed three times with lysis buffer, western blot.

These are yes or no findings as the source states them, for the method shown. Binding seen in cells or lysates may run through a third protein. Some results given as binding are weak or reduced against the parent protein; the word gives no strength. Tags and fused reporters may be left off the sequences shown.

B1: ERLIN2-Flag (protein, UniProt O94905 1-339)
chain: MAQLGAVVAVASSFFCASLFSAVHKIEEGHIGVYYRGGALLTSTSGPGFHLMLPFITSYKSVQTTLQTDEVKNVPCGTSGGVMIYFDRIEVVNFLVPNAVYDIVKNYTADYDKALIFNKIHHELNQFCSVHTLQEVYIELFDQIDENLKLALQQDLTSMAPGLVIQAVRVTKPNIPEAIRRNYELMESEKTKLLIAAQKQKVVEKEAETERKKALIEAEKVAQVAEITYGQKVMEKETEKKISEIEDAAFLAREKAKADAECYTAMKIAEANKLKLTPEYLQLMKYKAIASNSKIYFGKDIPNMFMDSAGSVSKQFEGLADKLSFGLEDEPLETATKEN
Take B1: the binding result with CLPTM1L-HA is on record as “binds”.

B2: wild-type ERLIN2-FLAG (protein, UniProt O94905 1-339)
chain: MAQLGAVVAVASSFFCASLFSAVHKIEEGHIGVYYRGGALLTSTSGPGFHLMLPFITSYKSVQTTLQTDEVKNVPCGTSGGVMIYFDRIEVVNFLVPNAVYDIVKNYTADYDKALIFNKIHHELNQFCSVHTLQEVYIELFDQIDENLKLALQQDLTSMAPGLVIQAVRVTKPNIPEAIRRNYELMESEKTKLLIAAQKQKVVEKEAETERKKALIEAEKVAQVAEITYGQKVMEKETEKKISEIEDAAFLAREKAKADAECYTAMKIAEANKLKLTPEYLQLMKYKAIASNSKIYFGKDIPNMFMDSAGSVSKQFEGLADKLSFGLEDEPLETATKEN
With B2, in the assay with wild-type CLPTM1L-HA, the binding entry is given as “binds”.

B3: CLPTM1L-HA (protein, UniProt Q96KA5 1-538)
chain: MWSGRSSFTSLVVGVFVVYVVHTCWVMYGIVYTRPCSGDANCIQPYLARRPKLQLSVYTTTRSHLGAENNIDLVLNVEDFDVESKFERTVNVSVPKKTRNNGTLYAYIFLHHAGVLPWHDGKQVHLVSPLTTYMVPKPEEINLLTGESDTQQIEAEKKPTSALDEPVSHWRPRLALNVMADNFVFDGSSLPADVHRYMKMIQLGKTVHYLPILFIDQLSNRVKDLMVINRSTTELPLTVSYDKVSLGRLRFWIHMQDAVYSLQQFGFSEKDADEVKGIFVDTNLYFLALTFFVAAFHLLFDFLAFKNDISFWKKKKSMIGMSTKAVLWRCFSTVVIFLFLLDEQTSLLVLVPAGVGAAIELWKVKKALKMTIFWRGLMPEFQFGTYSESERKTEEYDTQAMKYLSYLLYPLCVGGAVYSLLNIKYKSWYSWLINSFVNGVYAFGFLFMLPQLFVNYKLKSVAHLPWKAFTYKAFNTFIDDVFAFIITMPTSHRLACFRDDVVFLVYLYQRWLYPVDKRRVNEFGESYEEKATRAPHTD
As for B3, the binding entry with ERLIN2-Flag was “binds”.
